The other results are listed elsewhere or left out. Repeats in this data set agree poorly, so a single value says little.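 ATM8/balancer (normal ATM) heterozygous flies were crossed on treated food; parents laid eggs 5–6 days, offspring developed ~12 days, so parents and larvae ingested compound. Readout: fraction of emerged adults homozygous for ATM8 versus 2% DMSO controls. Compounds were neutral at 10–20% homozygotes, harmful below 10%, helpful above 20%.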
test system: Drosophila melanogaster ATM8 (temperature-sensitive ATM allele); assay: fraction of eclosed F1 progeny that are homozygous ATM8 (rescue of developmental lethality); higher = more rescue of ATM8 developmental lethality; extreme values may be limits of the assay; details: compound concentration applied to food 0.2 mM; 21 °C

| Compound | fraction of eclosed F1 progeny that are homozygous ATM8 |
| --- | --- |
| CN1C(C(=O)Nc2ccccn2)=C(O)c2ccccc2S1(=O)=O | 0.157 |
| COc1cc2c(cc1OC)[C@@H]1C(=O)c3ccc4c(c3O[C@@H]1CO2)CC(C(C)C)O4 (stereo partly drawn) | 0.145 |
| NCCS | 0.278 |
| COCCOC(=O)C1=C(C)NC(C)=C(C(=O)OC(C)C)C1c1cccc([N+](=O)[O-])c1 (stereo not drawn) | 0.0345 |
| CC1(C)[C@@H](O)CC[C@]2(C)[C@H]3C(=O)C=C4[C@@H]5C[C@@](C)(C(=O)O)CC[C@]5(C)CC[C@@]4(C)[C@]3(C)CC[C@@H]12 | 0.109 |
| C[C@]12CCC(=O)C=C1C=C[C@@H]1[C@@H]2CC[C@@]2(C)[C@H]1CC[C@@]21CCC(=O)O1 | 0.268 |
| CCC1(C2=NCCN2)Cc2ccccc2O1 (stereo not drawn) | 0.157 |
| CC[C@@H](CO)NC(=O)[C@@H]1C=C2c3cccc4[nH]cc(c34)C[C@H]2N(C)C1 | 0.125 |
| COC(=O)c1c(C)c2c(c(C)c1O)OC(=O)c1c(C)c(Cl)c(O)c(Cl)c1O2 | 0.0588 |
| Cc1ccc(C)c(OCCCC(C)(C)C(=O)O)c1 | 0.116 |
| O=C(O)C[C@H](O)C[C@H](O)/C=C/c1c(C2CC2)nc2ccccc2c1-c1ccc(F)cc1 | 0.158 |
| CCCCOC(=O)c1ccccc1C(=O)OCCCC | 0.0323 |
| O=C(CCCN1CCC(O)(c2ccc(Cl)cc2)CC1)c1ccc(F)cc1 | 0.325 |
| COc1cc2c(cc1OC)[C@@H]1Cc3ccc(OC)c(OC)c3CN1CC2 | 0.143 |
| COc1cc2c(cc1OC)C1C(=O)c3c(cc4c(c3O)C=CC(C)(C)O4)OC1CO2 (stereo not drawn) [beta-TOXICAROL] | 0.0588 |
| NCC(=O)CCC(=O)O | 0.353 |
| NC(=O)c1ccc[n+]([C@@H]2O[C@H](COP(=O)([O-])OP(=O)(O)OC[C@H]3O[C@@H](n4cnc5c(N)ncnc54)[C@H](O)[C@@H]3O)[C@@H](O)[C@H]2O)c1 | 0.0556 |
| COc1c2ccoc2cc2oc(C)cc(=O)c12 | 0.132 |
| COc1ccc(CN(CCN(C)C)c2ncccn2)cc1 | 0.0746 |
| COc1cc2c(cc1OC)[C@@H]1C(=O)c3ccc4c(c3O[C@@H]1CO2)C=CC(C)(C)O4 | 0.364 |
| S=c1[nH]cnc2nc[nH]c12 | 0.162 |
| C=C(C)[C@@H]1CC[C@]2(C)CC[C@]3(C)[C@H](CC[C@@H]4[C@@]5(C)CC[C@H](O)C(C)(C)[C@@H]5CC[C@]43C)[C@@H]12 | 0.105 |
| CCCCCCCCNC(C)C(O)c1ccc(SC(C)C)cc1 (stereo not drawn) | 0.205 |
| CC(=O)CC(c1ccc([N+](=O)[O-])cc1)c1c(O)c2ccccc2oc1=O (stereo not drawn) | 0.0417 |
| C[N+]1(C)CCc2cc3c(cc2[C@H]1[C@@H]1OC(=O)c2c1ccc1c2OCO1)OCO3 | 0.257 |
| C=CCc1cc(OC)c2c(c1OC)OCO2 | 0.105 |
| CC1=CC2C(CC1=O)C(C)=CCC2C(C)C (stereo not drawn) | 0.226 |

| Compound | fraction of eclosed F1 progeny that are homozygous ATM8 |
| --- | --- |
| CCC(C)C(=O)OC1CC2(C)C(c3ccoc3)OC(=O)CC23OC2(C)OC34C(OC(=O)C(C)C)C3(O)C(OC(=O)C5(C)OC5C)C5(C)CC3(O)C(C)(C5CC(=O)OC)C14O2 (stereo not drawn) | 0.0571 |
| NCCCCN | 0.1 |
| O=C1OC(=O)[C@H]2[C@@H]1[C@@H]1CC[C@H]2O1 | 0.214 |
| CC(C)NC(=N)NC(=N)Nc1ccc(Cl)cc1 | 0.429 |
| C[C@]12CCC3c4ccc(OS(=O)(=O)O)cc4CCC3C1CC[C@H]2O (stereo partly drawn) | 0 |
| CC1(C)S[C@@H]2[C@H](NC(=O)COc3ccccc3)C(=O)N2[C@H]1C(=O)O | 0.125 |
| CCCC(=O)O[C@]1(C(=O)CO)CC[C@H]2[C@@H]3CCC4=CC(=O)CC[C@]4(C)[C@H]3[C@@H](O)C[C@@]21C | 0.0161 |
| COc1ccc2c3c1O[C@H]1C[C@@H](O)C=C[C@@]31CCN(C)C2 | 0.0606 |
| O=c1[nH]c(=O)n([C@H]2C[C@H](O)[C@@H](CO)O2)cc1C(F)(F)F | 0.16 |
| Cc1nnc(SCC2=C(C(=O)O)N3C(=O)[C@@H](NC(=O)Cn4cnnn4)[C@H]3SC2)s1 | 0.0333 |
| NC(=O)N1c2ccccc2CC(=O)c2ccccc21 | 0.118 |
| c1cncc([C@@H]2CCCCN2)c1 | 0.2 |
| O=C(C=Cc1ccc(O)cc1)c1ccccc1O | 0.205 |
| CC(C)(C#N)O[C@@H]1O[C@H](CO)[C@@H](O)[C@H](O)[C@H]1O | 0.0976 |
| CC(C)Cn1cnc2c(N)nc3ccccc3c21 | 0.05 |
| CC(=O)O[C@H]1C(=O)[C@@]2(C)[C@H]([C@H](OC(=O)c3ccccc3)[C@]3(O)C[C@H](O)C(C)=C1C3(C)C)[C@]1(OC(C)=O)CO[C@@H]1C[C@@H]2O | 0.0595 |
| O=C1N=C(O)NC1(c1ccccc1)c1ccccc1 | 0.333 |
| C=C(C)[C@H]1Cc2c(ccc3c(=O)c4c(oc23)COc2cc(OC)c(OC)cc2-4)O1 | 0.266 |
| CC[N+](CC)(CC(=O)Nc1c(C)cccc1C)Cc1ccccc1 | 0.27 |
| COc1cc(NS(=O)(=O)c2ccc(N)cc2)nc(OC)n1 | 0.167 |
| CC1(C)O[C@@H]2[C@@H](CO[C@@]3(COS(N)(=O)=O)OC(C)(C)O[C@@H]23)O1 | 0.0816 |
| Cc1cccc(Nc2ccncc2S(=O)(=O)NC(=O)NC(C)C)c1 | 0.37 |
| CC(=O)O[C@@H]1CC[C@@]2(C)C(C[C@@H](OC(C)=O)[C@@]3(C)C4=CC(=O)O[C@@H](c5ccoc5)[C@]4(C)CCC23)C1(C)C (stereo partly drawn) [3alpha-ACETOXYDIHYDRODEOXYGEDUNIN] | 0.105 |
| C=C(C)[C@H]1COc2cc3oc(=O)ccc3cc2O1 | 0.0278 |
| CC(C)CCC[C@@H](C)[C@H]1CC[C@H]2[C@@H]3CC[C@H]4CC(=O)CC[C@]4(C)[C@H]3CC[C@]12C | 0.163 |
| CC(=O)O[C@H]1C[C@@H](O)C(C)(C)[C@@H]2C[C@@H](OC(C)=O)[C@]3(C)[C@H](CC[C@@]4(C)[C@@H](c5ccoc5)OC(=O)[C@H]5O[C@@]534)[C@@]12C | 0.106 |

Shown as tab-separated lines: part of the list above.
Compound	fraction of eclosed F1 progeny that are homozygous ATM8
O=C1OC(=O)[C@H]2[C@@H]1[C@@H]1CC[C@H]2O1	0.214
CC(C)NC(=N)NC(=N)Nc1ccc(Cl)cc1	0.429

Some of these compounds in order of length of the SMILES, high to low:

| Compound | fraction of eclosed F1 progeny that are homozygous ATM8 |
| --- | --- |
| CCC(C)C(=O)OC1CC2(C)C(c3ccoc3)OC(=O)CC23OC2(C)OC34C(OC(=O)C(C)C)C3(O)C(OC(=O)C5(C)OC5C)C5(C)CC3(O)C(C)(C5CC(=O)OC)C14O2 (stereo not drawn) | 0.0571 |
| CC(C)CCC[C@@H](C)[C@H]1CC[C@H]2[C@@H]3CC[C@H]4CC(=O)CC[C@]4(C)[C@H]3CC[C@]12C | 0.163 |
| Cc1nnc(SCC2=C(C(=O)O)N3C(=O)[C@@H](NC(=O)Cn4cnnn4)[C@H]3SC2)s1 | 0.0333 |
